Out of some 330,000 compounds screened, about 7,700 (2.3%) were called active. The shares of active, inactive and inconclusive entries below differ from those in the screen. The call rests on the fitted dose curve; in most records, active means well fitted inhibition curve with a large enough effect; inconclusive means small, poorly fitted or top-dose-only effect, or effect the other way; inactive means flat fitted curve, though single readings scatter. Where the call is inconclusive, the potency comes from a doubtful curve fit.
Assay: qHTS screen for small molecules that inhibit ELG1-dependent DNA repair in human embryonic kidney (HEK293T) cells expressing luciferase-tagged ELG1; further: nearly all actives have a fitted effect of over 55% in size
Details: HEK293T ELG1-luciferase reporter, luminescence, 16 h, DNA damage induced by 5-fluorouridine; activity change, negative = inhibition: at 46.1 µM (top of the series)
Summary of the method: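 Step one: seed 2,000 cells per well. Step two: pin-transfer compound or DMSO alongside 5-fluorouridine. Step three: incubate 16 hr, 37 °C, 5% CO2. Step four: add ONE-Glo, wait 30 min, read luminescence.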
With `CC1=C(C(=O)OCc2ccccc2)C(c2cccnc2)n2nnnc2N1` (configuration not stated) the “activity change, negative = inhibition” value was inactive: -13.2%.
With `O=S(=O)(c1ccc(OCC(O)CN2CCN(c3ccccc3Cl)CC2)cc1)N1CCOCC1` (configuration not stated) the Potency was inconclusive: 20.6 µM [inhibitor, single point].
With `COc1cccc(OCc2cc(C3Nc4ccccc4C(=O)N3Cc3ccco3)ccc2OC)c1` (configuration not stated) the Potency was inconclusive: 23.1 µM [inhibitor, single point].
With `CC(=O)c1c(C)[nH]c(C(=O)CN2C(=O)NC3(CCCCC3C)C2=O)c1C` (configuration not stated) the Potency was inconclusive: 13 µM [activator, partial curve, poor fit].
With `CCCc1ccc(C(=O)NNc2cccc(C)c2)cc1` the Potency was inconclusive: 5.17 µM [inhibitor, full curve].
With `CC(NC(=O)c1cccnc1)C(c1cccs1)N1CCN(c2ccccc2F)CC1` (configuration not stated) the Potency was inconclusive: 29.1 µM [inhibitor, single point].
With `OC(c1cc(-c2ccc(C(F)(F)F)cc2)nc(C(F)(F)F)c1)C1CCCCN1` (configuration not stated) the Potency was inconclusive: 29.1 µM [inhibitor, single point].
For `CC12COC3(C(=O)N4CCN(c5ccccn5)CC4)CC1CCC32C` (configuration not stated), the Potency was inconclusive: 23.1 µM [inhibitor, single point].
With `COc1cccc(CN2CC(C(=O)N(C)Cc3ccc(C)cc3)CCC2=O)c1` (configuration not stated) the Potency was inconclusive: 16.4 µM [activator, partial curve].
In the case of `Cc1ccc(-c2nn(-c3ccccc3)cc2CN(C)C(=O)CCC(=O)O)cc1C`, the “activity change, negative = inhibition” value is reported as inactive: 20.6%.
With `Cc1cccc(C)c1N1CCN(C(=O)c2ccc3c(c2)OCO3)CC1` the Potency was inconclusive: 16.4 µM [inhibitor, single point].
With `Cc1cc(SC(C)C(=O)O)nc2ccccc12` (configuration not stated) the Potency was inconclusive: 14.6 µM [activator, partial curve, poor fit].
In the case of `CC(=O)c1cccc(NC(=O)c2cc(C(C)C)on2)c1`, the Potency is reported as inconclusive: 8.2 µM [activator, partial curve].
With `O=C(COc1ccccc1)N=C1SC2CS(=O)(=O)CC2N1CCc1ccccc1` (configuration not stated) the “activity change, negative = inhibition” value was inactive: 2.39%.
For `COCCn1c(=NC(=O)CSCC(=O)Nc2cc(C)on2)sc2cc(C(=O)OC)ccc21`, the Potency was inconclusive: 18.4 µM [inhibitor, partial curve].
For `O=[N+]([O-])c1cccc(OCc2cn3cccnc3n2)c1`, the Potency was inconclusive: 29.1 µM [activator, single point].
In the case of `COc1cccc(-n2cc(CNCc3cn(C)nc3-c3ccccc3F)cn2)c1`, the “activity change, negative = inhibition” value is reported as inactive: -5.83%.
For `CCOC(=O)C1CCCN(C2=NC(=O)/C(=C/c3ccc(N(C)C)cc3)S2)C1` (configuration not stated), the “activity change, negative = inhibition” value was inactive: 6.91%.
In the case of `CC(C)N(C(=O)CS(=O)(=O)c1ccc(Cl)c(Cl)c1)C(C)C`, the “activity change, negative = inhibition” value is reported as inactive: -14.9%.
For `COc1ccc(S(=O)(=O)Nc2cccc(N(C)S(C)(=O)=O)c2)cc1C`, the Potency was inconclusive: 2.06 µM [inhibitor, partial curve, poor fit].
In the case of `CCOC(=O)c1c(C)[nH]c(C(=O)OCC(=O)N(C)CC(=O)Nc2ccccc2Cl)c1C`, the Potency is reported as inconclusive: 29.1 µM [inhibitor, single point].
In the case of `Clc1ccc(-c2nnc(-c3cccc4ccccc34)o2)cc1Cl`, the Potency is reported as inconclusive: 2.06 µM [activator, partial curve, poor fit].
In the case of `CN(Cc1nc(-c2ccncc2)no1)S(=O)(=O)c1ccc(Cl)cc1`, the Potency is reported as inconclusive: 29.1 µM [inhibitor, single point].
With `O=C(c1ccc(F)cc1F)N1CCCN(c2nc(-c3ccccc3)ns2)CC1` the “activity change, negative = inhibition” value was inactive: 3.89%.
With `COc1cc(-c2onc3ccc(Br)cc23)cc(OC)c1OC` the Potency was inconclusive: 23.1 µM [inhibitor, single point].
In the case of `COc1ccccc1NC(=O)Nc1ccc(F)c(F)c1`, the “activity change, negative = inhibition” value is reported as inactive: -3.98%.
For `NS(=O)(=O)c1ccc(NC(=S)NCc2ccccc2)cc1`, the Potency was inconclusive: 20.6 µM [activator, single point].
With `O=C1c2ccccc2C(Nc2ccc(-c3nc4ccccc4[nH]3)cc2)N1Cc1ccco1` (configuration not stated) the Potency was inconclusive: 29.1 µM [inhibitor, single point].
With `COc1ccc(C)cc1NC(=O)C(c1ccccc1)N1CCN(CC(=O)NC2CC2)CC1` (configuration not stated) the “activity change, negative = inhibition” value was inactive: -24.9%.
For `Cc1ccc(C(=O)N2C(=O)C(c3ccccc3)Oc3ccccc32)cc1` (configuration not stated), the Potency was inconclusive: 32.6 µM [inhibitor, partial curve, poor fit].
With `Cc1cc2[nH]c3ccccc3c2c(C)n1` the “activity change, negative = inhibition” value was inactive: -6.14%.
In the case of `CC(C)c1ccc(OCC(=O)N2CCc3ccccc3C2)cc1`, the Potency is reported as inconclusive: 1.3 µM [activator, full curve, poor fit].
For `CCOC(=O)c1c(NC(=O)CSc2nc3cc(Cl)ccc3c(=O)n2Cc2ccco2)sc(C(=O)N(C)C)c1C`, the Potency was active: 3.26 µM.
For `CC1CCC(NC(=O)CN(C)S(=O)(=O)c2cnc[nH]2)CC1` (configuration not stated), the “activity change, negative = inhibition” value was inactive: 28.4%.
In the case of `COc1ccc(O)c(/C=N/NC(=O)CSc2nnc(C)n2-c2ccccc2)c1`, the Potency is reported as inconclusive: 23.1 µM [inhibitor, partial curve].
With `Cc1nc(C)c(-c2csc(Nc3ccc(N)cc3)n2)s1` the Potency was inconclusive: 20.6 µM [inhibitor, partial curve].
In the case of `O=C(c1ccc(S(=O)(=O)Nc2ccc(F)cc2)cc1)N1CCN(C(=O)c2ccco2)CC1`, the Potency is reported as inconclusive: 20.6 µM [inhibitor, partial curve].
With `Cc1nn(-c2cc(N3CCCCCC3)ccc2[N+](=O)[O-])c(=O)c2ccccc12` the “activity change, negative = inhibition” value was inactive: -4.12%.
For `C[N+]1(CC2COC3(CCCCC3)O2)CCCCC1` (configuration not stated), the “activity change, negative = inhibition” value was inactive: 14%.
With `N/C(=N\OC(=O)c1ccccc1Br)c1ccc([N+](=O)[O-])cc1` the Potency was inconclusive: 3.26 µM [activator, full curve].
In the case of `Cc1occc1C(=O)Nc1ccc2ccccc2c1`, the Potency is reported as inconclusive: 6.51 µM [activator, single point].
For `CCOc1ccc(C(=O)NCc2ccccn2)cc1`, the Potency was inconclusive: 18.4 µM [activator, partial curve].
In the case of `CCc1ccc(Nc2cc(C(=O)NCCCN3CCOCC3)c3ccccc3n2)cc1`, the “activity change, negative = inhibition” value is reported as inactive: -28.4%.
With `CCOc1ccccc1C(=O)NC(C(=O)Nc1ccccc1N1CCOCC1)C(C)C` (configuration not stated) the “activity change, negative = inhibition” value was inactive: 2.33%.
With `O=C(CS(=O)(=O)c1ccccc1)Nc1ccc(Cl)cn1` the “activity change, negative = inhibition” value was inactive: 27.4%.
With `CCOC(=O)C1(CCCc2ccccc2)CCN(C(=O)Cc2nonc2C)CC1` the Potency was inconclusive: 18.3 µM [inhibitor, single point].
In the case of `COc1cc(/C=N/N2CCN(c3ccccc3OC)CC2)ccc1O`, the Potency is reported as inconclusive: 23.1 µM [activator, partial curve].
In the case of `Cc1ccc(S(=O)(=O)N2CCOCC2)cc1C(=O)Nc1ccc2c(c1)OCCO2`, the “activity change, negative = inhibition” value is reported as inactive: -1.45%.
In the case of `C[C@@H](C(=O)NCc1ccc(S(C)(=O)=O)cc1)[C@@H]1C[C@@]1(C)[C@@H](NC(=O)OCc1ccccc1)c1ccccc1`, the Potency is reported as inconclusive: 18.4 µM [inhibitor, single point].
For `CCOc1ccc(NC(=O)Nc2nc3ccc(S(C)(=O)=O)cc3s2)cc1`, the “activity change, negative = inhibition” value was inactive: 14.4%.
For `CC(CCc1ccccc1)NC(=O)C1CCCN(c2nnc(-n3cccc3)s2)C1` (configuration not stated), the Potency was inconclusive: 20.6 µM [inhibitor, single point].
In the case of `CCCCC1(Cc2ccc([N+](=O)[O-])cc2)C(=O)N(c2ccccc2)N(c2ccccc2)C1=O`, the “activity change, negative = inhibition” value is reported as inactive: 1.52%.
For `c1ccc2nc3c(nc2c1)CCc1nonc1-3`, the “activity change, negative = inhibition” value was inactive: -6.64%.
For `COc1ccc(NC(=O)c2ccc(Br)o2)cc1`, the Potency was inconclusive: 16.4 µM [activator, partial curve].
In the case of `CCc1ccc(S(=O)(=O)Nc2cccc(C3OCCCO3)c2)cc1`, the Potency is reported as active: 11.6 µM.
For `Cc1c(Cl)cccc1NC(=O)c1cc(-c2ccccc2O)n[nH]1`, the Potency was inconclusive: 13 µM [activator, partial curve].
In the case of `Cc1cc(C)cc(NC(=O)C2CCN(C(=O)c3cccs3)CC2)c1`, the “activity change, negative = inhibition” value is reported as inactive: 6.08%.
With `COCC(=O)Oc1c(Sc2ccccc2[N+](=O)[O-])c(C)nn1C(C)(C)C` the “activity change, negative = inhibition” value was inactive: -8.86%.
For `Fc1ccc(Cn2nnnc2C(c2cccs2)N2CCCCCC2)cc1` (configuration not stated), the Potency was inconclusive: 18.4 µM [inhibitor, partial curve, poor fit].
In the case of `COc1ccc2nc(NC(=S)N(C)C)sc2c1`, the Potency is reported as inconclusive: 0.58 µM [activator, partial curve].
For `CC(C)CCSc1nc2c(c(=O)[nH]c(=O)n2C)n1CCCc1ccccc1`, the Potency was inconclusive: 23.1 µM [inhibitor, partial curve, poor fit].
For `Cc1n[nH]c(C)c1Sc1ccccc1[N+](=O)[O-]`, the “activity change, negative = inhibition” value was inactive: 17%.
With `CCN(C(=O)COC(=O)CC(C)c1ccccc1)c1c(N)n(Cc2ccccc2)c(=O)[nH]c1=O` (configuration not stated) the “activity change, negative = inhibition” value was inactive: 16.3%.
For `CCN(C(=O)COC(=O)/C=C/c1ccc(C)o1)c1c(N)n(Cc2ccccc2)c(=O)[nH]c1=O`, the “activity change, negative = inhibition” value was inactive: 16.4%.
With `COc1cc(C(=O)NCC(=O)OCc2ccc(F)cc2)cc(OC)c1OC` the Potency was inconclusive: 23.1 µM [inhibitor, single point].
With `C[N+](C)(C)CC/C=C1/c2ccccc2CSc2ccccc21` the “activity change, negative = inhibition” value was inactive: 5.36%.
For `Cc1nc(Nc2ccc3c(c2)OCO3)c2oc3ccccc3c2n1`, the Potency was inconclusive: 29.1 µM [inhibitor, single point].
In the case of `CCCn1nc(C(=O)NNC(=O)c2cc(S(=O)(=O)NC)ccc2Br)c2ccccc2c1=O`, the Potency is reported as active: 8.2 µM.
In the case of `O=C(CCn1c(=O)c2cccn2c2cccnc21)N1CCN(c2cccc(Cl)c2)CC1`, the Potency is reported as inconclusive: 29.1 µM [inhibitor, single point].
With `O=C(NCc1ccco1)/C(=C\c1ccco1)NC(=O)c1ccccc1Cl` the “activity change, negative = inhibition” value was inactive: 13.3%.
With `COc1cccc(CN(C)CC(=O)Nc2cc(S(=O)(=O)N3CCCC3)ccc2Cl)c1OC` the Potency was inconclusive: 32.6 µM [inhibitor, single point].
With `COc1ccc([N+](=O)[O-])cc1N(CC(O)CN1CCCCC1)S(=O)(=O)c1ccc(C)cc1` (configuration not stated) the Potency was inconclusive: 18.3 µM [inhibitor, single point].

— PubChem BioAssay AID504467 (National Center for Advancing Translational Sciences (NCATS), 2011)
On the % scale 0 is the no-effect control and ±100 the full control effect; potency means the concentration at half of the fitted maximal effect.
